Reference: PubChem BioAssay AID588590 (National Center for Advancing Translational Sciences (NCATS), 2011)
Values joined by “and” are separate entries in the source; they are usually repeats but may differ in a detail not shown here. Equal entries are not always repeated. The campaign covered roughly 390,000 compounds. About 4,000 (1%) were called active. Inconclusive means that the source gave no clear call. Such entries were picked first, then a sample of the others. Calls follow the shape of the dose curve; as a rule, active = well fitted inhibition curve with a large enough effect; inconclusive = small, poorly fitted or top-dose-only effect, or another doubt; inactive = no such curve, though single readings can be large or run the other way. Potencies beside an inconclusive call are fits to weak or partial responses and may not hold up.
Potency is read from the fitted curve at half-maximal effect.

Protein sequences, listed by entry. Tags and fused reporters are not part of them. Lines headed by an entry give the natural chain unless they say otherwise; changes in a name come on top.
UniProt Q9UNA4: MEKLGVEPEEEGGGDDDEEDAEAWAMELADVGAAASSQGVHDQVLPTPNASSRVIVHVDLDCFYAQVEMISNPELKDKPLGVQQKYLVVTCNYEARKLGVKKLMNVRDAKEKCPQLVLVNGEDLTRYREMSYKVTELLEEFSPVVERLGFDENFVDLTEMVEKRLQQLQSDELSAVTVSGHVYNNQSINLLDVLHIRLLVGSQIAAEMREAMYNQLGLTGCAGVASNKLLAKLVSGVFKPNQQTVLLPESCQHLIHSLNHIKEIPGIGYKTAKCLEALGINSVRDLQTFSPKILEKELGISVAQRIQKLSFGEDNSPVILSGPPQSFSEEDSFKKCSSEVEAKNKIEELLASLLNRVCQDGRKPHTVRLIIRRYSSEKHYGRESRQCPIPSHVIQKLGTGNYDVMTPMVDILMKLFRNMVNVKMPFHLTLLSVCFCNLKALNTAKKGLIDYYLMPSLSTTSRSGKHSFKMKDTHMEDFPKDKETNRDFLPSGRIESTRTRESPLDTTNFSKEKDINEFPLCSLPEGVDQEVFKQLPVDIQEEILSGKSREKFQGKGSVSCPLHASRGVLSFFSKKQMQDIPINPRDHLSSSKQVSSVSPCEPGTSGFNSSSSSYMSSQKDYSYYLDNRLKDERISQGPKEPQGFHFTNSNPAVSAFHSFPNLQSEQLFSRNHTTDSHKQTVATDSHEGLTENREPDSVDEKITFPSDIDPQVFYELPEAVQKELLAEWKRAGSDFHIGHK

These compounds were tested against DNA polymerase iota (Homo sapiens) (UniProt Q9UNA4) (assay: qHTS for Inhibitors of Polymerase Iota). Conditions: Pol iota fluorescent replication assay, 10 min; series mostly up to 115 µM; activity, negative = inhibition: at the top concentration.
Outline: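 Fluorescent replication assay read twice, at 0 min and 10 min after adding 50 nM (final) substrate. Enzyme (10 nM) and compounds were first incubated 15 min at room temperature; enzyme-free buffer wells were negative controls.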
With CCOc1ccccc1CNC(=O)CN1C(=O)CCCc2ccccc21 the “activity, negative = inhibition” value was inactive: -10.5%.
Cc1cccc(OCCCCn2nnc3sc4c(c3c2=O)CCC(C)C4)c1 (stereo unspecified) was tested, and the Potency was inconclusive: 89.1 µM [inhibitor, single point].
Cc1ccc(C(=O)Sc2cccccc2=O)cc1 was tested, and the Potency was inconclusive: 15.8 µM [inhibitor, partial curve, poor fit].
For CCC(CO)Nc1ncnc2c1cnn2-c1ccc(C)cc1 (stereo unspecified), the “activity, negative = inhibition” value was inactive: 27.2%.
With CN(C)C/C=C(/c1ccc(Br)cc1)c1cccnc1 the Potency was inconclusive: 15.8 µM [inhibitor, partial curve].
With CNC(=O)c1c(NC(=O)CCS(=O)(=O)c2ccccc2)sc2c1CCN(C(=O)OC)C2 the Potency was inconclusive: 8.91 µM [inhibitor, partial curve, poor fit].
In the case of CC(NC(=O)CCNC(=O)c1ccc(Br)cc1)c1ccc(S(N)(=O)=O)cc1 (stereo unspecified), the Potency is reported as inconclusive: 89.1 µM [inhibitor, single point].
Cc1ccc(S(=O)(=O)NC(CC(=O)NCc2ccco2)c2ccco2)cc1 (stereo unspecified) was tested, and the Potency was inconclusive: 11.2 µM [inhibitor, partial curve, poor fit].
For COCc1c(Br)c(C)nc(OCC(=O)N/N=C/c2ccco2)c1C#N, the Potency was inconclusive: 17.8 µM [inhibitor, full curve, poor fit].
CC(=O)OCc1cc(=O)n(C)c(=O)n1C was tested, and the Potency was inconclusive: 79.4 µM [inhibitor, single point].
For O=C(NNc1ccnc2cc(Cl)ccc12)C1CCCCC1, the “activity, negative = inhibition” value was inactive: 118%.
COc1ccc(C2CC(c3ccccc3)Oc3cc4c(cc32)OCO4)cc1 (stereo unspecified) was tested, and the Potency was “inactive and inconclusive: 79.4 µM [inhibitor, partial curve, poor fit]”.
With O=C(Cn1ccccc1=S)c1ccc(Cl)c(Cl)c1 the Potency was inconclusive: 79.4 µM [inhibitor, partial curve].
In the case of Cc1nc(NC(C)c2ccccc2)sc1C(=O)Nc1ccccc1 (stereo unspecified), the Potency is reported as inconclusive: 8.91 µM [inhibitor, full curve, poor fit].
In the case of CC(=O)c1cn(CC(=O)Nc2ccccc2C(F)(F)F)c2ccccc12, the Potency is reported as inconclusive: 35.5 µM [inhibitor, single point].
CCN1CCN(CCOc2cccc(Cl)c2Cl)CC1 was tested, and the Potency was inconclusive: 28.2 µM [inhibitor, partial curve, poor fit].
In the case of CCN(CC)C(=O)c1ccc(COc2ccc(Cl)c(C)c2)o1, the “activity, negative = inhibition” value is reported as inactive: 27.3%.
COc1ccc(CN(C(=S)Nc2ccccc2)C2CC(=O)N(c3ccc(F)cc3)C2=O)cc1 (stereo unspecified) was tested, and the Potency was inconclusive: 25.1 µM [inhibitor, full curve, poor fit].
For COc1ccccc1NC(=O)CN1C(=O)c2cccc3cccc1c23, the “activity, negative = inhibition” value was inactive: 1.38%.
C#CCOCCOCCOCCNc1nc(N2CCOCC2)nc(N2CCN(C(=O)CCCCCCCCCCNC(=O)[C@@H](CCC(=O)O)n3cc(CCCCCN)nn3)CC2)n1 was tested, and the Potency was inconclusive: 7.94 µM [inhibitor, full curve, poor fit].
For Cn1cc(C(C[N+](=O)[O-])c2ccccc2)c2ccccc21 (stereo unspecified), the Potency was inconclusive: 14.1 µM [inhibitor, full curve, poor fit].
For CCN(CC)c1ccc(NC(=O)Nc2ccc(C(C)=O)cc2)cc1, the “activity, negative = inhibition” value was inactive: 2.47%.
With CCCNC(=O)c1ccc(N2CCC3(CC2)CC(c2ccccc2)=NO3)c(N)c1 the Potency was inconclusive: 100 µM [inhibitor, single point].
For CCCCN(CCCC)CCNC(=O)CN1C(=O)CSc2ccc(S(=O)(=O)N3CCCCC3)cc21, the Potency was inconclusive: 89.1 µM [inhibitor, partial curve, poor fit].
With Cc1cc(=O)oc2cc(Oc3ccc([N+](=O)[O-])cc3[N+](=O)[O-])ccc12 the Potency was active: 79.4 µM.
For COC(=O)/C=c1/s/c(=C(\C#N)C(=O)NCc2ccco2)n(-c2ccc(C)cc2)c1=O, the Potency was inconclusive: 44.7 µM [inhibitor, partial curve, poor fit].
For N#C/C(=C/c1ccc(-c2ccc(C(=O)O)c(Cl)c2)o1)C(=O)NCC1CCCO1 (stereo unspecified), the Potency was inconclusive: 89.1 µM [inhibitor, partial curve].
With O=C(NC(=S)NC1CCCC1)c1ccccc1 the “activity, negative = inhibition” value was inactive: 18.1%.
In the case of CCOC(=O)c1cc(OC(=O)c2ccc(Cl)cc2)n(-c2ccccc2)n1, the Potency is reported as inconclusive: 89.1 µM [inhibitor, single point].
With COc1ccc(C(C)=O)cc1COC(=O)c1ccc(N)c([N+](=O)[O-])c1 the Potency was active: 31.6 µM.
With CC(NCc1ccc(N(C)C)cc1)C1CC2CCC1C2 (stereo unspecified) the Potency was inconclusive: 6.31 µM [inhibitor, full curve, poor fit].
With CN(C=C1C(=O)CC(C)(C)CC1=O)CCN1CCNCC1 the Potency was inconclusive: 20 µM [inhibitor, single point].
With Cc1cc(Br)ccc1NC(=O)CN1C(=O)C2CC=CCC2C1=O (stereo unspecified) the Potency was inconclusive: 15.8 µM [inhibitor, partial curve, poor fit].
In the case of CCc1ccc(-n2nc(C)c3c(C(=O)NCCc4ccc(OC)c(OC)c4)cc(C)nc32)cc1, the “activity, negative = inhibition” value is reported as inactive: 12.7%.
In the case of O=C(Nc1nnc(COc2ccc(Cl)cc2)s1)c1cccs1, the Potency is reported as inconclusive: 10 µM [inhibitor, partial curve, poor fit].
In the case of O=C(Cn1c(CC(=O)N2CCOCC2)nc2ccccc21)Nc1ccc2c(c1)OC(F)(F)O2, the Potency is reported as inconclusive: 35.5 µM [inhibitor, single point].
With C=CCSC1=N/C(=C\c2ccc(C(=O)O)cc2)C(=O)S1 the “activity, negative = inhibition” value was inactive: 32.4%.
O=C(Cc1cccs1)Nc1nnc(SCc2ccc(Br)cc2)s1 was tested, and the Potency was inconclusive: 112 µM [inhibitor, partial curve, poor fit].
With O=C1/C(=C\c2cccc(O)c2O)SC(=S)N1Cc1ccccc1 the Potency was inconclusive: 11.2 µM [inhibitor, partial curve].
For CCOC(=O)c1cc(C(=O)OCC)cc(-n2c(C)cc(C(=O)CN3CCOCC3)c2C)c1, the Potency was inconclusive: 10 µM [inhibitor, single point].
In the case of CCC1CCCCN1C(=O)c1nn(-c2ccc(C)cc2)c(=O)c2c1c1ccccc1n2C (stereo unspecified), the “activity, negative = inhibition” value is reported as inactive: 25.5%.
With CC(C)(C)c1csc(NC2=NS(=O)(=O)c3ccccc32)n1 the Potency was inconclusive: 56.2 µM [inhibitor, partial curve].
In the case of CCN1CCN(C(=O)/C=C/c2ccc(C(C)C)cc2)CC1, the “activity, negative = inhibition” value is reported as inactive: -12.4%.
With Cc1ccc(OCC(=O)Nc2ccc(O)c(-c3nc4ccccc4o3)c2)cc1 the “activity, negative = inhibition” value was inactive: 11%.
For COc1ccc(S(=O)(=O)c2c(O)c3ccc(C(=O)Nc4cccc(F)c4)cc3[nH]c2=O)cc1, the Potency was inconclusive: 22.4 µM [inhibitor, partial curve, poor fit].
CCOC(=O)c1ccc(NC(=O)c2csc3c2CCCCC3)cc1 was tested, and the “activity, negative = inhibition” value was inactive: 45.5%.
O=C(NC(=S)NCc1ccncc1)c1ccccc1 was tested, and the “activity, negative = inhibition” value was inactive: -1.53%.
In the case of COC(=O)c1cc2oc3ccccc3c2n1CC(=O)N1CCCc2ccccc21, the Potency is reported as inconclusive: 31.6 µM [inhibitor, partial curve].
Cc1ccc(CN2CCN(C3CCN(S(=O)(=O)c4ccc(C)cc4)CC3)C(=O)C2=O)cc1 was tested, and the “activity, negative = inhibition” value was inactive: 38.8%.
COc1ccc(NC(=O)c2ccc(-c3ccccc3C(F)(F)F)o2)cc1 was tested, and the Potency was inconclusive: 17.8 µM [inhibitor, partial curve, poor fit].
With O=C(O)c1ccc2nc(-c3cc4cc(F)ccc4oc3=O)[nH]c2c1 the Potency was inconclusive: 50.1 µM [inhibitor, partial curve].
For COc1cc(NC(=O)c2ccnc(N)c2)cc(C(=O)Nc2cccc(C(F)(F)F)c2)c1, the Potency was inconclusive: 7.08 µM [inhibitor, full curve, poor fit].
CC1=NN(c2ccccc2)C(=O)C1 was tested, and the Potency was inconclusive: 0.708 µM [inhibitor, full curve, poor fit].
With CC(=O)N1CCC2(CC1)OC(=O)C(C)=C2C(=O)NCc1ccc(Cl)cc1 the “activity, negative = inhibition” value was inactive: -5.91%.
For Cn1ccc2c(OCC(=O)NCc3ccccc3Cl)cccc2c1=O, the “activity, negative = inhibition” value was inactive: 2.93%.
With CCc1ccc(NC(=O)C(=O)NCC(c2cccnc2)N2CCN(C)CC2)cc1 (stereo unspecified) the Potency was inconclusive: 39.8 µM [inhibitor, partial curve, poor fit].
For C/C(=N\Nc1ccc([N+](=O)[O-])cc1[N+](=O)[O-])c1cccnc1, the Potency was inconclusive: 17.8 µM [inhibitor, full curve, poor fit].
For O=C(Nc1ccc2oc(-c3cccnc3)nc2c1)c1ccc(-c2ccccc2)o1, the Potency was inconclusive: 89.1 µM [inhibitor, single point].
With O=C1CC(SCCc2nc3ccccc3[nH]2)C(=O)N1c1ccc(F)cc1 (stereo unspecified) the Potency was inconclusive: 31.6 µM [inhibitor, full curve, poor fit].
In the case of CN1C(=O)N(CC(=O)Nc2sccc2C(N)=O)C(=O)C12CCCCC2, the “activity, negative = inhibition” value is reported as inactive: -26.4%.
COc1ccccc1/C=C1\SC(=S)N(CCC(=O)NCCc2ccc(O)cc2)C1=O was tested, and the Potency was inconclusive: 79.4 µM [inhibitor, single point].
Cc1[nH]n(-c2ccccc2)c(=O)c1C(=O)Nc1ccccc1 was tested, and the Potency was inconclusive: 56.2 µM [inhibitor, partial curve, poor fit].
With CC(C)c1ccc(NS(=O)(=O)c2ccc3[nH]cc(C(=O)N4CCCC4)c(=O)c3c2)cc1 the Potency was active: 79.4 µM.
With CCn1ccc2cc(S(=O)(=O)N3CCCN(C(=O)Nc4cc(Cl)ccc4C)CC3)ccc21 the Potency was inconclusive: 89.1 µM [inhibitor, single point].
In the case of COc1ccc(C(=O)O)cc1S(=O)(=O)Nc1ccc(N2CCCCC2)cc1, the Potency is reported as inconclusive: 31.6 µM [inhibitor, single point].
For COc1ccc(OC)c(CNC(=O)CCCn2nc(C)c3c(C)n(-c4ccc(C)cc4)nc3c2=O)c1, the “activity, negative = inhibition” value was inactive: 18.5%.
